Assay results as given in PubChem BioAssay AID488922 (Johns Hopkins Ion Channel Center, 2010).
Some of the results follow.

assay: blockers of human TASK-3 (KCNK9) channel – HEK293 cells, thallium flux, primary screen (AID 488922); conditions: HEK293 KCNK9, FluxOR thallium flux fluorescence; initial fluorescence intensity artifact flag; at 10 µM;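 further: negative B-score means less thallium flux so channel inhibition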

Structure (SMILES)	B-score
O=P(Nc1nccs1)(c1ccccc1)c1nc2ccccc2s1 (stereo unspecified)	0.609
